The values below come from PubChem BioAssay AID1508600 (Functional Genomics Laboratory (NCATS/FGL), 2020).

The whole screen tested about 53,000 sequences, of which about 3,700 (7%) were called active.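 Rule for the calls: active = gene knockdowns whose robust z-score for IL-1 alpha signal is at least 2 or at most -2, so actives lie on both sides; inactive = the rest.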 This is one part of the list.

A short description of the experiment: Components of the Cytosolic LPS Sensing Pathway: Gene Identification via Genome-wide siRNA Screen.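 Note: robust z of the log signal after scaling to non-targeting control siRNA wells of the plate.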 The following applies: RAW264.7 macrophages, IL-1a HTRF, actives lie on both sides, screened at 100 nM (by protocol), cells primed 5 h with Pam3CSK4 first. Summed up: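 Cells (RAW264.7, 1×10^4 per well) were transfected with siRNA at 100 nM and cultured 48h at 37 degrees C. Pam3CSK4 was added for 5 hours; LipidA transfection followed for 24 hour. IL-1a was then measured by HTRF.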
As for CCUUGGGACUGACUGUAAGTT against Ptrh2, the z-score is inactive: -0.887.

With GGAGUACACGUUCAUCAUCTT against Clstn2, the z-score was inactive: 0.643.

Consider CGAAACACUCAAGGUUGUATT against Creb3l2, for which the z-score was inactive: -0.314.

As to GGUAUUCCCUAGAGAUAAATT against Olfr1241, the z-score is inactive: 0.732.

For the sequence GGGUGUAGCAUUGUCACAGTT against Olfr1133, the z-score was active: 2.32.

On to GGAACCUUUGAGAAUAUGATT against Spats2, for which the z-score was inactive: 0.17.

CCGUAUAAGUUUACGUUUATT against Tm9sf2: the z-score is inactive: 0.761.

On to GGCUAACCAGAGGAAAAACTT against Rph3a, for which the z-score is active: -2.19.

Consider GGGCAAUCCUGAAUUGGUUTT against Atp2b4, for which the z-score was inactive: 1.23.

Consider GGAGUUCAAAGAUGCAAUUTT against Zfyve27, for which the z-score is active: 2.33.

Turning to GGGUUUCUGGGACUUCACCTT against Bgn, the z-score is inactive: -0.911.

In the case of GGUAACCUUGGAGAAGGUCTT against Mapkbp1, the z-score was inactive: 0.647.

As to GCCUGAAUCCGCCACAUUGTT against Cx3cl1, the z-score is inactive: 1.6.

In the case of GGUGCUGGUGGACAUUGCATT against L3hypdh, the z-score is inactive: -1.32.

GGAUCUACAUUGCUAAAGUTT against Dbil5: the z-score was inactive: 0.0731.

As to CGGACCUACAAACAAUAACTT against Ccl9, the z-score was inactive: 0.11.

For GCCAUUCGCACAUACCAGATT against Exoc4, the z-score is inactive: 1.01.

Turning to UGAAAGCAUAAGCAAUACATT against Ercc6l2, the z-score is inactive: -1.29.

As for CCAUUGUGAUCAAGAUAAATT against Cggbp1, the z-score is inactive: -0.35.

Consider GCGGAACAUCUUAGCUUAATT against Perm1, for which the z-score is inactive: -0.111.

Regarding UCGGCCAUGUAGUAUGGGATT against Xlr3a, the z-score was inactive: 0.42.

As to GGAAAAAGAUUGAGGAAGUTT against Uhrf1, the z-score was inactive: -1.13.

As for GGACAUUAACGAGCUGAACTT against Ube2m, the z-score was inactive: 0.67.

With GGACUUGAGAAAAGAUUAUTT against Shroom1, the z-score was inactive: 1.03.

On to CCUGAGAUGAUAAUCCUGCTT against Sprr2i, for which the z-score was inactive: -0.501.

GGUUAUCUUGAAUAAAGCUTT against Zfp346: the z-score was inactive: -0.303.

Turning to GGAUUGAUAAUUUCCUGAATT against Nol6, the z-score is inactive: 0.6.

Regarding GGGCUGUGAUCUUAUUUCATT against Tpk1, the z-score is inactive: 1.75.

Take GGCCUAUGUCCACAAGAGUTT against Magohb: the z-score is inactive: -0.999.

In the case of GCCCUUAAUUGAACAAAUATT against Otud7b, the z-score was inactive: 0.0529.

Turning to GGAGGCUGAAAAGUUCCGGTT against Card19, the z-score was inactive: 0.135.

For the sequence GGGUUUUUAGCUAAUACUATT against Pdk1, the z-score was inactive: 1.86.

As for GGAAGACUCUUGGAUUCUCTT against Evi5, the z-score was inactive: 0.67.

Take GCAGAUUUGAAGCAUAUUGTT against N4bp1: the z-score was inactive: 0.0609.

As to GCCAAGAUGGUUAAAUACCTT against Ankrd34b, the z-score is inactive: -1.64.

GGAACUAUCACGUGUUCUATT against Myo7a: the z-score was inactive: 0.837.

CCUCUAGCCAUCUACUUUGTT against Rad9b: the z-score was inactive: -1.03.

CCGAGGCAUCUUAGCUUAATT against Nxt1: the z-score is inactive: -0.348.

In the case of GGCGGAAAUCUUGAGCAAATT against Slc28a2, the z-score is active: 4.39.

Take CCGAGACAUAUACAAAGGATT against Klkb1: the z-score was inactive: -0.36.

Consider GCCUUGACCUCAUACCUUGTT against Spc24, for which the z-score was inactive: -1.5.

With GGAAGUCUUAGAAGUAGCCTT against Diaph3, the z-score is inactive: 0.691.

Turning to GCAUCAUUAAAAAGGAGAGTT against Shmt1, the z-score is inactive: -0.178.

Regarding GGUCCUCAAUGAAAUGAGATT against Krt12, the z-score is inactive: 1.05.

For the sequence GAGUCUGGUUAUGUGGCAUTT against Scgb1a1, the z-score was inactive: 0.442.

With GGUGUAAUUCUCAUUGUGCTT against Slc10a2, the z-score is inactive: 0.589.

Regarding GGCAACAUUCCUUAUUCACTT against Sh3bgrl3, the z-score is inactive: -0.0568.

Turning to GGAGUCAACACACAUCAAGTT against Zfp13, the z-score is inactive: 1.

Consider UACUUAGGCCCUUGAGCAUTT against Timm10, for which the z-score was inactive: 0.725.

Consider GGACUAUAUUCUUAACUCATT against F11r, for which the z-score was inactive: 0.121.

Consider GGAUUUUGAAGCCAGUUGCTT against Ubash3a, for which the z-score is inactive: 0.731.

On to AUGGGACUCAUGUAAUGGUTT against Ly6k, for which the z-score was inactive: 0.735.

For the sequence GGGCAUUGCCAGGAAUUAUTT against Lrp1b, the z-score is inactive: 1.31.

GCAUCUCCCUUAUGUCUGUTT against Nubp2: the z-score is active: 2.12.

Turning to GGCUUAUGUGGUCCUUGGCTT against Banf1, the z-score is inactive: -1.5.

For the sequence CCUGUCUUUAGUGGACUUUTT against Olfr1453, the z-score is inactive: 0.22.

As for CCACAUGUUUGUCUCAAAATT against Gskip, the z-score was inactive: 1.28.

GGCACCAUUGAAAUUCUGATT against Rplp0: the z-score was inactive: 0.152.

As for CGCUGCUGGUUCAUAUUGGTT against Zdhhc25, the z-score is inactive: -0.859.

On to GGUACUGGAUGAGCUGAGGTT against Letm1, for which the z-score is inactive: 0.362.

With GCCAGGAUUAUCUUGAGAATT against Prpf39, the z-score is inactive: -1.42.

In the case of UGGGCCUUGUAGGCUUCAUTT against Rell2, the z-score is active: 2.3.

Regarding CCAACUACUAGAAUGUAUCTT against Fam124b, the z-score was inactive: -1.34.

Turning to CGUGGUCUUCACGAUUGGATT against Pde4c, the z-score was active: 3.71.

Consider GGAGAGGACAGAAAGCAAATT against Mchr1, for which the z-score was inactive: 0.113.

CCAUUGAGGGAAUGAUUAATT against Acvr1b: the z-score was inactive: 0.596.

Turning to CCAAAGAUACCAUUUUGCATT against Lypd8, the z-score was inactive: 0.599.

Take GCUCAGUAUACUUCAGCAUTT against Sebox: the z-score is inactive: -0.706.

GGAGGGUCCUUUUUCACAUTT against Asph: the z-score is inactive: -0.5.
